# Measured values reported in the supplement of paper PMC10849652.
# Protein sequences, listed by entry. Tags and fused reporters are not part of them. Lines headed by an entry give the natural chain unless they say otherwise; changes in a name come on top.
# UniProt Q9UBT3: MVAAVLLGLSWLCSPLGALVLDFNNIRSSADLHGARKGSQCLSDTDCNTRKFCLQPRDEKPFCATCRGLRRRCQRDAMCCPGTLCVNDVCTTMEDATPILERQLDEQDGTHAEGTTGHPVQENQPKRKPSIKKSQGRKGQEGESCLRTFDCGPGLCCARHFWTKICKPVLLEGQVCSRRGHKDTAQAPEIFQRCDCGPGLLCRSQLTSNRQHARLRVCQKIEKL
# UniProt O15121: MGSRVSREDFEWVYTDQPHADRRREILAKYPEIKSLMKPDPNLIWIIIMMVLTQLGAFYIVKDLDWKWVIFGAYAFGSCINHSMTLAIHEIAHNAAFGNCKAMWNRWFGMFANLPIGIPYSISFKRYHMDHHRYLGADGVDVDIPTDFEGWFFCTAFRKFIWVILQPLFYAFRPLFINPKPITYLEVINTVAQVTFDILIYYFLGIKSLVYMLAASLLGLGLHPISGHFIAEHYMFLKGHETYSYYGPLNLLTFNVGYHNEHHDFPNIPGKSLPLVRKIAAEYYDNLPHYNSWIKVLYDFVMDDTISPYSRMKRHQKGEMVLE
# UniProt Q16531, whole entry, looked up: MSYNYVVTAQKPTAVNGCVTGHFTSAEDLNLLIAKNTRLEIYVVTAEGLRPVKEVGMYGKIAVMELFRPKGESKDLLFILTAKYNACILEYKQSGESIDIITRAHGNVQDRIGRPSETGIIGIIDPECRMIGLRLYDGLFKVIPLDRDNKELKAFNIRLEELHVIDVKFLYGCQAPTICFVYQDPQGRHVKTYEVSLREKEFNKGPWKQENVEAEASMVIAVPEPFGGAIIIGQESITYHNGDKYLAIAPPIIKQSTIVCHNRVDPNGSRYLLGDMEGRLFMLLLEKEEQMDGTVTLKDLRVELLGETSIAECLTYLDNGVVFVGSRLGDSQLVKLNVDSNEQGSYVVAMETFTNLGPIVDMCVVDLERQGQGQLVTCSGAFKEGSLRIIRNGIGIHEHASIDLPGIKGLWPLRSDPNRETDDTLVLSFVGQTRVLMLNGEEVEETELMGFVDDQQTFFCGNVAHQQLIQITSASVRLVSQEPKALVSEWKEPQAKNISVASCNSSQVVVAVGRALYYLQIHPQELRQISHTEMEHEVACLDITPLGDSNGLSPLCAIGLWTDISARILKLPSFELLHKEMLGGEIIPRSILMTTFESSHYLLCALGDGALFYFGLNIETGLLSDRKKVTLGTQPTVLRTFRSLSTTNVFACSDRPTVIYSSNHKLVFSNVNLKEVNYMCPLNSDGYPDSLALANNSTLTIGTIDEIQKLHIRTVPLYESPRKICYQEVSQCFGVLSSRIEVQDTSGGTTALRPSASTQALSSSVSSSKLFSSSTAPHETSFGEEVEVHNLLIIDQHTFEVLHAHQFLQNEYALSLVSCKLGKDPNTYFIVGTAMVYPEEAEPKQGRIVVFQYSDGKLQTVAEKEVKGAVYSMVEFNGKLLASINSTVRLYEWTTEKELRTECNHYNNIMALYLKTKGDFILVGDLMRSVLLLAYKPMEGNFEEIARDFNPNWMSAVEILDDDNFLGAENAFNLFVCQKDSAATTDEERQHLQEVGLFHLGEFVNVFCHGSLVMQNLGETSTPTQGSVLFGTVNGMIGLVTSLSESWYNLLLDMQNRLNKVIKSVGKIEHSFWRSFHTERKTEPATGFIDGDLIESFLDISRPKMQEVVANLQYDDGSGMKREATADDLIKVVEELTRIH
# UniProt Q8IY37: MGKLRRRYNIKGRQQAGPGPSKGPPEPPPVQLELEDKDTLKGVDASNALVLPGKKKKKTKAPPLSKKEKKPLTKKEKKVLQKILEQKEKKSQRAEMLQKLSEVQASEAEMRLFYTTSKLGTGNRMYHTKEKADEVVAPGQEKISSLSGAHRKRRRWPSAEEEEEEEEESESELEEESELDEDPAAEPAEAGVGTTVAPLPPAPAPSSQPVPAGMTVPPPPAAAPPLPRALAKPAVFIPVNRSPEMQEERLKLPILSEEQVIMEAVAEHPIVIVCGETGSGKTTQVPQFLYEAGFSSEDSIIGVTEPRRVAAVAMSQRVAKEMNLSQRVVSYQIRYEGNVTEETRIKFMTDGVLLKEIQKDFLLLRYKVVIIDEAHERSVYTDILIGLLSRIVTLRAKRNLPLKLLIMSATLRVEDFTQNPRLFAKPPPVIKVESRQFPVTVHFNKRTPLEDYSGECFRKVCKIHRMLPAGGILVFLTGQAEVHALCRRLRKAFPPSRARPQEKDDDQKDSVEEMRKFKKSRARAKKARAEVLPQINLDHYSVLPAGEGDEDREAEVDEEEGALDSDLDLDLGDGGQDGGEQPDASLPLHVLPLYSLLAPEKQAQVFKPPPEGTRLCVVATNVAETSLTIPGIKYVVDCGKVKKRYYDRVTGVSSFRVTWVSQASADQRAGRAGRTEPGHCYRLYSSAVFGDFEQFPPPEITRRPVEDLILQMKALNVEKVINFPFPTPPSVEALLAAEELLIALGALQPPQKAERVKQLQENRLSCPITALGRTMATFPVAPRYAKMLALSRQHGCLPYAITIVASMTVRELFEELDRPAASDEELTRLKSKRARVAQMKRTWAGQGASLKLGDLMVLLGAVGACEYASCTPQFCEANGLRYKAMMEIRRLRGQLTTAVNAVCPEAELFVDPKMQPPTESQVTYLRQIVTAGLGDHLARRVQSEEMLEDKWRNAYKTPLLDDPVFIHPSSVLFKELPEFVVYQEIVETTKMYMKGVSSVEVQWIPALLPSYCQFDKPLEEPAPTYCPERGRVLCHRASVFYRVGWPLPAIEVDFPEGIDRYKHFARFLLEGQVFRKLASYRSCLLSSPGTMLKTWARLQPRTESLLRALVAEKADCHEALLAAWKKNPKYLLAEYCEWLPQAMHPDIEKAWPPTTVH
# UniProt Q8N5I4: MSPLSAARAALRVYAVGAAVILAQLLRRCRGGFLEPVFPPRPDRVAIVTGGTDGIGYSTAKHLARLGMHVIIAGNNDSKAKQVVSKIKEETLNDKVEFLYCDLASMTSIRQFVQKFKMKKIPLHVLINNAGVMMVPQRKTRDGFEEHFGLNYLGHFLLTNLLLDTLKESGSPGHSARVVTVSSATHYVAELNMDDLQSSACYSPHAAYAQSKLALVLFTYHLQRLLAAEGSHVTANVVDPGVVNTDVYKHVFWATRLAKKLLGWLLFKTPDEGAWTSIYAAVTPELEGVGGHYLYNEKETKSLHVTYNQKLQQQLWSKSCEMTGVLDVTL
# UniProt Q6ZN54: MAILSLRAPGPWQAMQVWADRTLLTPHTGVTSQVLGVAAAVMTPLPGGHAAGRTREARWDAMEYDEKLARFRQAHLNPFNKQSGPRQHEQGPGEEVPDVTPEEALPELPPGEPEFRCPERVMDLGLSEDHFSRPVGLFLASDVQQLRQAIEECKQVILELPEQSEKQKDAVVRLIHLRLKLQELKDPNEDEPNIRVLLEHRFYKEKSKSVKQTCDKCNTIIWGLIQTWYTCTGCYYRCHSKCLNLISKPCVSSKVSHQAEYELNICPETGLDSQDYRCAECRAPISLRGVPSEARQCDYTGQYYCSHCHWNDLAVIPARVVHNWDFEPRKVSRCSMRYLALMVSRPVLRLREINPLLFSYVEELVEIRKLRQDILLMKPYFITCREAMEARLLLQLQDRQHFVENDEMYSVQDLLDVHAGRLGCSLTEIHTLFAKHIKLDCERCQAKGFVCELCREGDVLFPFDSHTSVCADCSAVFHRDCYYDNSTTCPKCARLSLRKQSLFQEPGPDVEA
# UniProt Q7L7V1: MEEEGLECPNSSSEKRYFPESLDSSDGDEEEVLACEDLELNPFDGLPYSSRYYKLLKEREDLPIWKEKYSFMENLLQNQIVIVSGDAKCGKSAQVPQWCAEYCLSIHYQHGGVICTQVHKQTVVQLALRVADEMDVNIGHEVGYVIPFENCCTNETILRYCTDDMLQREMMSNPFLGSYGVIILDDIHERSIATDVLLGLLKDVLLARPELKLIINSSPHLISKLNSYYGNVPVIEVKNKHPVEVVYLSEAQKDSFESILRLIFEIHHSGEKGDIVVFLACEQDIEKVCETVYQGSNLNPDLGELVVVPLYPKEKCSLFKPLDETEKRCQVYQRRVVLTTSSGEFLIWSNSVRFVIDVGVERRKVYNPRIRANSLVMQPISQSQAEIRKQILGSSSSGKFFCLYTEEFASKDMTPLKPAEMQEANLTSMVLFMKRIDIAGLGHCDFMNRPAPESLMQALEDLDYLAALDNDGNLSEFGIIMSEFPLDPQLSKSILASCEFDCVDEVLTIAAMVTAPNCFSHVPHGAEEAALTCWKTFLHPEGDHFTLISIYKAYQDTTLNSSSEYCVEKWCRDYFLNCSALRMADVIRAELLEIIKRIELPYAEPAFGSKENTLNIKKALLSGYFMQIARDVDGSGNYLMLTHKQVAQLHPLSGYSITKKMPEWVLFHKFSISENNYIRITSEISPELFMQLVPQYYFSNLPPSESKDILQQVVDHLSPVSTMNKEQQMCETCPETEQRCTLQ
# UniProt Q08495: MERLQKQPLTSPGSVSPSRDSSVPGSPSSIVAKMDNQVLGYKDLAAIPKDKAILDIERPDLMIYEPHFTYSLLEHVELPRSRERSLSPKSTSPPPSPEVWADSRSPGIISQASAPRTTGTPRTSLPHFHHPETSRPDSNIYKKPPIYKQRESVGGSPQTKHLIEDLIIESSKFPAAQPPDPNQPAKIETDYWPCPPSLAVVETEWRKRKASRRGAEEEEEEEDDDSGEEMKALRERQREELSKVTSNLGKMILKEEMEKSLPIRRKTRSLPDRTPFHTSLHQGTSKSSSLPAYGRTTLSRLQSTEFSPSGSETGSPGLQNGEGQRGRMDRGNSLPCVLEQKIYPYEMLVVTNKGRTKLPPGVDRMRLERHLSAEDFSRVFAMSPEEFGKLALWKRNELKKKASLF
# UniProt Q9UHL0: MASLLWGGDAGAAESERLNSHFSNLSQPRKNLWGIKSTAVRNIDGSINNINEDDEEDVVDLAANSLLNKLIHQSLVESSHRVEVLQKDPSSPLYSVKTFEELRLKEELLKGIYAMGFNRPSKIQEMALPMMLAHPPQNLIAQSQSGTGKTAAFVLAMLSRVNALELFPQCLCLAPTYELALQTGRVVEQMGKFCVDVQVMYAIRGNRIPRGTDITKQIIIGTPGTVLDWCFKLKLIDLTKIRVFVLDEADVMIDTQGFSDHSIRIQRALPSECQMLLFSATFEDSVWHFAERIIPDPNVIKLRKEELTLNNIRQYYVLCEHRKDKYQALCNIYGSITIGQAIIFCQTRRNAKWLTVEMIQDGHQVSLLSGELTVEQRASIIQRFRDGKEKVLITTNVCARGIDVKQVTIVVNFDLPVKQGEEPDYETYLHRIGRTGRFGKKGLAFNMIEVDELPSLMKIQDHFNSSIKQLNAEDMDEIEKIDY
# UniProt Q6E0U4: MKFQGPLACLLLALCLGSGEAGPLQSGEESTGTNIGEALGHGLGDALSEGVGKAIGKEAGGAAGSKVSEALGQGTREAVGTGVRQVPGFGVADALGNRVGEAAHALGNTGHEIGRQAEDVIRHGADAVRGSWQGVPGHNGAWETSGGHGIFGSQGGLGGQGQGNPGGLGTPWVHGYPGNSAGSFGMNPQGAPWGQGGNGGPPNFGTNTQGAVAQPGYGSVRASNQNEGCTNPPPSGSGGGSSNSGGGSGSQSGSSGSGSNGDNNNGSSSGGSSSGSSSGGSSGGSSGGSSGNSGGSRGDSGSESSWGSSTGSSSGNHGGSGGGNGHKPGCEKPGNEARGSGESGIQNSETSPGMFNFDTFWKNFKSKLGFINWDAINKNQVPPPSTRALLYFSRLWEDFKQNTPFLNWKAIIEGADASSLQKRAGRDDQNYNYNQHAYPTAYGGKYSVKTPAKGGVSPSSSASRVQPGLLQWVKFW
# UniProt Q8NHQ9: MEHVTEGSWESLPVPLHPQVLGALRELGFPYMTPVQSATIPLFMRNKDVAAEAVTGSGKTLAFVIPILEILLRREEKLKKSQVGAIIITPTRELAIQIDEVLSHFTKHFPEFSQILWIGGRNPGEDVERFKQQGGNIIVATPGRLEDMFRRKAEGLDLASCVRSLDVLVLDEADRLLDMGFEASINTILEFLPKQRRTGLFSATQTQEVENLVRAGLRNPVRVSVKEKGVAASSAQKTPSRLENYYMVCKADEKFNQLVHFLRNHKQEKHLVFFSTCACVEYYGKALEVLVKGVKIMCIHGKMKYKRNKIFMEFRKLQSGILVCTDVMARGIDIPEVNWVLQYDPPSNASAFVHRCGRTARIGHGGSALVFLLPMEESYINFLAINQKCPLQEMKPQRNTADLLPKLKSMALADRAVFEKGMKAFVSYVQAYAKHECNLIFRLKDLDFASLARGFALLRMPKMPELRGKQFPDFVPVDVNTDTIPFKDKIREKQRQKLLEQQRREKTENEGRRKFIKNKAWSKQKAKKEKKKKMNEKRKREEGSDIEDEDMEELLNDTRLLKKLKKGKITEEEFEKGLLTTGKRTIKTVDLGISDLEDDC
# The list shows a part of the results.
# Experiments:
# Test in all cases: log2 fold change, soluble protein after heating vs DMSO (PISA); higher = thermal stabilisation; K562 cells, 10 uM, 30 min; active = over 0.2 and 3.5 SD of the protein, either way, in both replicates (recomputed)
# [1] = compound: CCn1cc(-c2ccnc3[nH]c(-c4cccc(CN(C)C)c4)cc23)c(-c2ccc(NC(=O)N(C)C)cc2)n1
# Method in brief: (§1)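 Aliquots of K562 cells (2×10^6 cells/mL) treated with 10 μM compound for 30 min were heated for 3 min over 48°C-58°C. After pooling and extraction in PBS with 0.5% NP-40 at 4°C, soluble protein from a 21,000xg, 90 min spin was quantified by TMTpro 16plex LC-MS/MS with channel sums equalised. Thermal stability is expressed against control samples, from duplicates, as a log2 fold change.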
# [2] = compound: CN1CCC(CNc2ccc3ncc(-c4cccc(OC(F)(F)F)c4)n3n2)CC1
# Method in brief: as §1
# Nexturastat A = compound: CCCCN(Cc1ccc(C(=O)NO)cc1)C(=O)Nc1ccccc1 [Nexturastat A]
# Method in brief: as §1
# [3] = compound: CCCc1cc(C)[nH]c(=O)c1CNC(=O)c1cc(-c2ccnc(N3CCN(C)CC3)c2)cc2c1cnn2C(C)C
# Method in brief: as §1
# [4] = compound: CC[C@H](C)N1C=C(C2=C(C=C(C=C21)C3=CN=C(C=C3)N4CCNCC4)C(=O)NCC5=C(C=C(NC5=O)C)C)C
# Method in brief: as §1
# epoxomicin = compound: CC[C@H](C)[C@@H](C(=O)N[C@@H]([C@@H](C)O)C(=O)N[C@@H](CC(C)C)C(=O)[C@]1(CO1)C)NC(=O)[C@H]([C@@H](C)CC)N(C)C(=O)C [epoxomicin]
# Method in brief: as §1
# [5] = compound: CC1=C(C=C(C=C1)NC(=O)C2=CC(=CC=C2)C(C)(C)C#N)NC3=CC4=C(C=C3)N=CN(C4=O)C
# Method in brief: as §1
# [6] = compound: CC1=CC=C(C=C1)SC2=C3C=C(SC3=CN=C2)C(=O)N
# Method in brief: as §1
# vemurafenib = compound: CCCS(=O)(=O)Nc1ccc(F)c(C(=O)c2c[nH]c3ncc(-c4ccc(Cl)cc4)cc23)c1F [vemurafenib]
# Method in brief: as §1
# [7] = compound: CCCS(=O)(=O)Nc1ccc(F)c(C(=O)c2c[nH]c3ncc(Cl)cc23)c1F
# Method in brief: as §1
# givinostat = compound: CCN(CC)Cc1ccc2cc(COC(=O)Nc3ccc(C(=O)NO)cc3)ccc2c1 [givinostat]
# Method in brief: as §1
# barasertib = compound: CCN(CCCOc1ccc2c(Nc3cc(CC(=O)Nc4cccc(F)c4)[nH]n3)ncnc2c1)CCOP(=O)(O)O [barasertib]
# Method in brief: as §1
# [8] = compound: CC[C@@H]1C(=O)N(C)c2cnc(Nc3ccc(C(=O)NC4CCN(C)CC4)cc3OC)nc2N1C1CCCC1
# Method in brief: as §1
# volasertib = compound: CC[C@@H]1C(=O)N(C)c2cnc(Nc3ccc(C(=O)N[C@H]4CC[C@H](N5CCN(CC6CC6)CC5)CC4)cc3OC)nc2N1C(C)C [volasertib]
# Method in brief: as §1
# [9] = compound: CN(C)CC(=O)Nc1ccc2[nH]c(=O)c3ccccc3c2c1
# Method in brief: as §1
# [10] = compound: CN1C2=C(C3=C1C(=O)N(N=C3)CC4=CC(=CC=C4)N)SC(=C2)S(=O)C
# Method in brief: as §1
# [11] = compound: CCn1c(C(=O)N(C2CC2)C2CC2)cc2c3c(ncn3C)c(Nc3cc(C)n(C)n3)nc21
# Method in brief: as §1
# [12] = compound: CC1=C(C=C(C=C1)NC(=O)C2=CC(=CC=C2)N(C)C)NC(=O)C3=CC=C(C=C3)O
# Method in brief: as §1
# [13] = compound: CC1=NC(=CC=C1)C2=C(N=C(N2)C(C)(C)C)C3=CC4=NC=CN=C4C=C3
# Method in brief: as §1
# rosiglitazone = compound: CN(CCOC1=CC=C(C=C1)C[C@H]2C(=O)NC(=O)S2)C3=CC=CC=N3 (racemic) [rosiglitazone]
# Method in brief: as §1
target,measurement,setting,value
DKK4 (UniProt Q9UBT3),log2 fold change,[1],inactive: -0.019
same,log2 fold change,[2],inactive: 0.665
"DDX46, A0A0C4DG89",log2 fold change,Nexturastat A,inactive: 0.058
same,log2 fold change,[3],inactive: 0.149
same,log2 fold change,[4],inactive: -0.074
same,log2 fold change,epoxomicin,inactive: 0.155
DEGS1 (UniProt O15121),log2 fold change,[5],inactive: -0.088
same,log2 fold change,[6],inactive: 0.003
same,log2 fold change,Nexturastat A,inactive: -0.062
same,log2 fold change,vemurafenib,inactive: -0.185
same,log2 fold change,[7],inactive: 0.033
same,log2 fold change,[3],inactive: -0.053
same,log2 fold change,givinostat,inactive: -0.023
same,log2 fold change,barasertib,inactive: -0.018
same,log2 fold change,[8],inactive: 0.061
same,log2 fold change,volasertib,inactive: -0.02
same,log2 fold change,[4],inactive: 0.012
same,log2 fold change,epoxomicin,inactive: -0.037
same,log2 fold change,[1],inactive: -0.168
same,log2 fold change,[9],inactive: 0.068
same,log2 fold change,[10],inactive: -0.1
same,log2 fold change,[2],inactive: 0.019
DENND1C (UniProt Q8IV53),log2 fold change,[5],inactive: -0.211
same,log2 fold change,vemurafenib,inactive: -0.268
same,log2 fold change,givinostat,inactive: 0.151
same,log2 fold change,[11],inactive: -0.152
same,log2 fold change,[9],inactive: -0.014
DDB1 isoform 2 (UniProt Q16531),log2 fold change,[5],inactive: -0.144
same,log2 fold change,Nexturastat A,inactive: -0.061
same,log2 fold change,barasertib,inactive: 0.116
same,log2 fold change,[8],inactive: 0.141
same,log2 fold change,epoxomicin,inactive: -0.287
same,log2 fold change,[1],inactive: 0.235
same,log2 fold change,[2],inactive: -0.041
DHX37 (UniProt Q8IY37),log2 fold change,Nexturastat A,inactive: 0.033
same,log2 fold change,givinostat,inactive: 0.176
same,log2 fold change,epoxomicin,inactive: -0.088
same,log2 fold change,[11],inactive: -0.129
DHX34 (UniProt Q14147),log2 fold change,[12],inactive: -0.042
same,log2 fold change,[13],inactive: 0
same,log2 fold change,Nexturastat A,inactive: 0.288
same,log2 fold change,givinostat,inactive: 0.197
same,log2 fold change,[8],inactive: 0.088
same,log2 fold change,epoxomicin,inactive: 0.208
same,log2 fold change,[11],inactive: -0.224
same,log2 fold change,[10],inactive: 0.061
DHRSX (UniProt Q8N5I4),log2 fold change,[13],inactive: -0.04
same,log2 fold change,vemurafenib,inactive: 0.007
same,log2 fold change,[3],inactive: -0.028
same,log2 fold change,givinostat,inactive: -0.067
same,log2 fold change,barasertib,inactive: 0.026
same,log2 fold change,[4],inactive: 0.027
same,log2 fold change,[11],inactive: -0.085
same,log2 fold change,[1],inactive: -0.013
same,log2 fold change,[9],inactive: 0.073
same,log2 fold change,rosiglitazone,inactive: -0.176
same,log2 fold change,[2],inactive: 0.105
DEF8 (UniProt Q6ZN54),log2 fold change,[6],inactive: 0.047
same,log2 fold change,vemurafenib,inactive: 0.181
same,log2 fold change,[7],inactive: 0.069
same,log2 fold change,givinostat,inactive: -0.013
same,log2 fold change,barasertib,inactive: 0.146
same,log2 fold change,volasertib,inactive: -0.201
same,log2 fold change,[11],inactive: 0.179
same,log2 fold change,[9],inactive: 0.024
same,log2 fold change,rosiglitazone,inactive: -0.193
DHX32 (UniProt Q7L7V1),log2 fold change,Nexturastat A,inactive: 0.271
same,log2 fold change,[8],inactive: 0.095
same,log2 fold change,epoxomicin,inactive: -0.007
DERPC (UniProt P0CG12),log2 fold change,[12],inactive: -0.052
same,log2 fold change,[13],inactive: 0.005
same,log2 fold change,vemurafenib,inactive: 0.07
same,log2 fold change,[3],inactive: -0.029
same,log2 fold change,givinostat,active: 0.454
same,log2 fold change,barasertib,inactive: 0.012
same,log2 fold change,[8],inactive: 0.127
same,log2 fold change,[4],inactive: -0.051
same,log2 fold change,[1],inactive: 0.197
same,log2 fold change,[9],inactive: 0.053
same,log2 fold change,[10],active: 0.519
same,log2 fold change,[2],inactive: 0.025
DHPS (UniProt M0R1T2),log2 fold change,[5],inactive: 0.118
same,log2 fold change,barasertib,inactive: 0.11
DMTN isoform 2 (UniProt Q08495),log2 fold change,[12],inactive: -0.011
same,log2 fold change,[13],inactive: -0.033
same,log2 fold change,barasertib,inactive: 0.062
same,log2 fold change,[4],inactive: 0.099
same,log2 fold change,rosiglitazone,inactive: -0.037
DDX25 (UniProt Q9UHL0),log2 fold change,[6],inactive: 0.065
same,log2 fold change,[13],inactive: 0.067
same,log2 fold change,vemurafenib,inactive: 0.252
same,log2 fold change,[7],inactive: 0.239
same,log2 fold change,[3],inactive: 0.116
same,log2 fold change,barasertib,inactive: 0.204
same,log2 fold change,[8],inactive: -0.082
same,log2 fold change,volasertib,inactive: -0.154
same,log2 fold change,[4],inactive: 0.01
same,log2 fold change,[9],inactive: 0.151
same,log2 fold change,rosiglitazone,inactive: -0.037
same,log2 fold change,[10],inactive: -0.169
DMKN (UniProt Q6E0U4),log2 fold change,[12],inactive: -0.072
same,log2 fold change,[6],inactive: -0.032
same,log2 fold change,vemurafenib,inactive: 0.274
same,log2 fold change,[7],inactive: -0.242
same,log2 fold change,[3],inactive: 0.332
same,log2 fold change,givinostat,inactive: -0.033
same,log2 fold change,barasertib,inactive: 0.074
same,log2 fold change,[8],inactive: 0.691
same,log2 fold change,volasertib,inactive: 0.363
same,log2 fold change,[4],inactive: 0.092
same,log2 fold change,[11],inactive: 0.227
same,log2 fold change,[9],inactive: 0.172
same,log2 fold change,rosiglitazone,inactive: 0.085
DDX55 (UniProt Q8NHQ9),log2 fold change,[5],inactive: 0.267
same,log2 fold change,vemurafenib,inactive: -0.144
same,log2 fold change,barasertib,inactive: 0.137
same,log2 fold change,[8],inactive: -0.088
same,log2 fold change,[9],inactive: 0.08
same,log2 fold change,rosiglitazone,inactive: -0.042
DDX52 (UniProt Q9Y2R4),log2 fold change,[12],inactive: -0.098
same,log2 fold change,[13],inactive: -0.239
same,log2 fold change,barasertib,inactive: -0.002
same,log2 fold change,rosiglitazone,inactive: -0.236
same,log2 fold change,[10],inactive: 0.31
DLC1 (UniProt Q96QB1),log2 fold change,[13],inactive: -0.509
same,log2 fold change,Nexturastat A,inactive: 0.063
same,log2 fold change,vemurafenib,inactive: 0.006
same,log2 fold change,[3],inactive: 0.047
same,log2 fold change,[8],inactive: -0.024
same,log2 fold change,[4],inactive: -0.273
same,log2 fold change,epoxomicin,inactive: 0.032
same,log2 fold change,[1],inactive: 0.161
same,log2 fold change,[9],inactive: 0.021
same,log2 fold change,[2],inactive: -0.501
DDR1 isoform 5 (UniProt Q08345),log2 fold change,[12],inactive: 0.078
same,log2 fold change,[13],inactive: -0.097
same,log2 fold change,Nexturastat A,inactive: 0.075
same,log2 fold change,vemurafenib,inactive: -0.066
same,log2 fold change,givinostat,inactive: 0.347
same,log2 fold change,epoxomicin,inactive: -0.04
same,log2 fold change,[11],inactive: -0.009
same,log2 fold change,[1],inactive: -0.048
same,log2 fold change,[9],inactive: 0.129
same,log2 fold change,[2],inactive: -0.607

# Some of the entries above in a different format:
target	measurement	setting	value
DEGS1 (UniProt O15121)	log2 fold change	[5]	inactive: -0.088
DHX34 (UniProt Q14147)	log2 fold change	epoxomicin	inactive: 0.208
DEF8 (UniProt Q6ZN54)	log2 fold change	rosiglitazone	inactive: -0.193
DHPS (UniProt M0R1T2)	log2 fold change	barasertib	inactive: 0.11
DMKN (UniProt Q6E0U4)	log2 fold change	[9]	inactive: 0.172
DDX55 (UniProt Q8NHQ9)	log2 fold change	[8]	inactive: -0.088
